Data published in patent US6071710A, “Antikinin compounds and uses thereof” (MUSC Foundation for Research Development, priority 1997, dated 2000).
“Also recorded” adds a separate entry of the source. At least one peptide structure holds a part that was inferred or is arguable (an end, a ring closure or a residue). Some compounds share one wording; it may come from a single statement. Where a SMILES comes first, the peptide text is derived from it. Where no end group is shown, it is not given here. [ ]: non-standard residue; d: D form.

Assays:
[1] = system: inducible nitric oxide synthase; experiment: Nitric oxide measurement by Greiss reaction (nitrite in media); format: cell-based, rat; details: for generation of nitric oxide (nitrite in media): cultured rat aorta smooth muscle cells
[2] = system: endotoxin (LPS)-treated anesthetized rats; experiment: Endotoxin (LPS) shock in anesthetized rats; format: in vivo, rat; details: for survival time: 1 μg/kg IV followed by 143 ng/kg/hr, one hour prior to LPS (12 mg/kg IV), vs vehicle/LPS
Protocol: Male Sprague-Dawley rats (220-480 g) were anesthetized with inactin (120 mg/kg, IP). The trachea was cannulated and the animal was allowed to breath 100% O2. Polyvinyl cannulas (Norton Plastics, Akron, Ohio) were inserted into the jugular vein and the femoral artery for the purposes of infusion of saline and agents and for monitoring of blood pressure, respectively, as described for FIGS. 2 and 3. Heart rate was monitored by tachograph and body temperature was maintained at 37° C. After a 2 hour period of equilibration with saline infusion (0.25 ml/hr), peptides (1 μg/kg followed by 143 ng/kg/hr) or saline were administered, followed one hour later by LPS (12 mg/kg). Time of death was taken as time after administration of LPS when there was no longer a detectable ECG. Values shown are the mean ± sem from the indicated number of studies and were compared using either t-test (FIG. 12A) or ANOVA with Fisher's post-hoc t-test (FIG. 12B).

cyclooxygenase = experiment: Activation of cyclooxygenase (6-keto-PGF1α radioimmunoassay); format: cell-based, rat; details: for effect on activation of cyclooxygenase by angiotensin II (AII) and bradykinin (BK): 10 nM (l)- or (d)-BK1-5; for activation of cyclooxygenase (6-keto-PGF1α released): cultured rat aortic vascular smooth muscle cells, 10 minutes, peptide alone
isolated rat aorta = experiment: Protection of isolated aortic segments against LPS (contraction to phenylephrine); details: for protection of contractile responses to phenylephrine against LPS: LPS (30 μg/ml) plus peptide (1 nM), 5 hours; for protection against the deleterious effects of LPS: upon stimulation by 1 μl phenylephrine
[3] = system: spontaneously hypertensive rats; experiment: Mean systemic arterial blood pressure after brain injection of BK fragments; format: in vivo, rat; details: hypertensive anesthetized rats, preliminary for BK1-7, BK2-7
Protocol: Experiments were performed on male spontaneously hypertensive rats weighing 250-350 g. Anesthesia and surgical procedures are described (15-17). Following the surgical procedures, animals were allowed to stabilize for 30 minutes. Injections were then made unilaterally into the rostral ventral lateral medulla oblongata. In any given experiment, not more than four doses of the BK fragments were given. Successive injections were alternated between sides after an intervening period of 20 minutes. Mean arterial pressure was measured from a femoral arterial line with a transducer (Statham Laboratories, Inc. Hato Rey, Puerto Rico) and recorded using a polygraph (Grass Instrument Co., Quincy, Mass.). Values shown are the mean changes ± sem.

[4] = system: rat brain cortical glial cells; experiment: Free intracellular calcium in cultured glial cells (calcium-sensitive dye); format: cell-based
[5] = system: rat aortic smooth muscle cells; experiment: DNA synthesis (3H-thymidine incorporation); format: cell-based
[6] = system: vascular smooth muscle cells; experiment: Tyrosyl phosphorylation of cytoplasmic proteins (anti-phosphotyrosine immunoblot); format: cell-based, rat; details: 10^-7 M; within a 5-minute exposure
kinin B2 receptors = biological target: T1, kinin B2 receptors (Rattus norvegicus, UniProt P25023); experiment: [3H]bradykinin binding assay in VSMC; details: rat aortic smooth muscle cells
T1 construct: endogenous in cells; host or cells: primary rat aortic vascular smooth muscle cells (male Sprague-Dawley), passage 2-4
T1 sequence (P25023 1-396): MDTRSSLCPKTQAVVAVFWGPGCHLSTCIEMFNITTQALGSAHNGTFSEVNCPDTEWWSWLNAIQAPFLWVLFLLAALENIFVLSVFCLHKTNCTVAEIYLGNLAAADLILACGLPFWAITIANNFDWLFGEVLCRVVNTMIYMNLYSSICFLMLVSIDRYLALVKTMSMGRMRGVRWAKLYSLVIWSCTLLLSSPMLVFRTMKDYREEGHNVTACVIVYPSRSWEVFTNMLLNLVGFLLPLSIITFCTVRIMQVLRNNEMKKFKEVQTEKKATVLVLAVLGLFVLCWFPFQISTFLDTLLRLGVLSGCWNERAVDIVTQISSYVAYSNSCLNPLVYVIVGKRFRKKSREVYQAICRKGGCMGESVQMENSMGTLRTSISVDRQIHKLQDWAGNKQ
Protocol: VSMC grown in 6-well plates were washed with and allowed to equilibrate with 1 ml of binding buffer (25 mM TES, 1 mM phenanthroline, 15 μM captopril, 0.1% BSA, pH 7.0). Saturation binding experiments were performed by incubating cells with [^-3 H] bradykinin (60,000 cpm/well) and varying the concentration of unlabeled bradykinin (5×10^-11 -1×10^-6 M) in binding buffer for 2 h at 4° C. Cells were washed 3 times with 2 ml of ice-cold binding buffer and solubilized for 10 min in 1% SDS, 0.1 M NaOH, 0.1 M Na2 CO3 solution and counted for radioactivity. Data were analyzed using the LIGAND program to determine the affinity constants and the receptor number.

[7] = system: focal adhesion kinase (p125FAK); experiment: Tyrosine phosphorylation of focal adhesion kinase (immunoprecipitation/immunoblot); format: cell-based, rat; details: 10^-7 M; compared with BK and des-Arg9-BK

FGPPR [FGPPR] was tested, and the “generation of nitric oxide (nitrite in media)” value (“generation of nitric oxide” for short) ([1]; IL-1β as activator, 24 hr) was “inhibited nitric oxide production”.

For N=C(N)NCCC[C@@H](N)C(=O)N1CCC[C@@H]1C(=O)N1CCC[C@@H]1C(=O)NCC(=O)N[C@H](Cc1ccccc1)C(=O)O [(d)-BK1-5] (H-[dR][dP][dP]G[dF]-OH), the “generation of nitric oxide” value ([1]; IL-1β as activator, 24 hr) was “inhibited nitric oxide production”, the survival time [2] was “prolonged cardiovascular integrity and life” and the “effect on activation of cyclooxygenase by angiotensin II (AII) and bradykinin (BK)” value (cyclooxygenase) was “enhanced the generation of 6-keto PGF1α produced by two recognized activators of prostaglandin synthesis; also recorded: enhance the ability of AII and BK to stimulate cyclooxygenase”. For the same molecule, the “activation of cyclooxygenase (6-keto-PGF1α released)” value (cyclooxygenase) was “concentration-dependent increase in the amount of 6-keto PGF1α released; also recorded: activate cyclooxygenase”, the “protection of contractile responses to phenylephrine against LPS” value (“protection of contractile responses” for short) (isolated rat aorta) was “protected isolated aortic segments against the deleterious effects of LPS” and the “protection of contractile responses” value (isolated rat aorta; listed as (d) pentapeptide) was “sustained vascular integrity in the face of attack by LPS”. The “protection against the deleterious effects of LPS” value (isolated rat aorta) was “protection against the deleterious effects of LPS”.

For RPPGF [RPPGF, Arg-Pro-Pro-Gly-Phe], the “generation of nitric oxide” value ([1]; IL-1β as activator, 24 hr) was “inhibits the generation of NO”, the “generation of nitric oxide” value ([1]; LPS (50 μg/ml), 24 hours) was “inhibits the generation of NO” and the “inhibition of LPS-induced nitrite levels” value ([1]; 10^-7 M RPPGF) was “significant inhibition”. For the same molecule, the “inhibition of LPS-induced nitrite levels” value ([1]; 10^-9 M RPPGF) was “even more inhibition”, the “systemic mean arterial pressure (MAP) response” value [3] was “able to lower systemic mean arterial pressure (MAP) in low doses, but increase it in a higher dose” and the survival time ([2]; listed as (l) pentapeptide) was “prolonged cardiovascular integrity and life”. For the same molecule, the survival time ([2]; listed as BK1-5) was “does provide protection against endotoxin”, the survival time ([2]; listed as minikinin) was “prolongs life” and the “blood pressure in endotoxin stimulated shock” value ([2]; LPS treated rats) was “reduces hypotension”. For the same molecule, the “level of free intracellular calcium” value ([4]; RPPGF 10-^8 M perfused from 120 to 720 seconds) was “oscillations”, the “level of free intracellular calcium” value ([4]; RPPGF perfused over cultured rat brain cortex glial cells) was “striking and abrupt change in the level of free intracellular calcium; also recorded: stimulate increases in intracellular free calcium” and the DNA synthesis ([5]; 10-^9 M to 10-^6 M, means from six experiments) was “marked increases in new DNA synthesis with the greatest stimulation noted at the lowest concentration tested”. The DNA synthesis ([5]; very low concentrations (10^-9 M)) was “dramatic increase in DNA synthesis”, the “effect on activation of cyclooxygenase by angiotensin II (AII) and bradykinin (BK)” value (cyclooxygenase; listed as (l)-BK1-5) was “enhanced the generation of 6-keto PGF1α produced by two recognized activators of prostaglandin synthesis; also recorded: enhance the ability of AII and BK to stimulate cyclooxygenase” and the “activation of cyclooxygenase (6-keto-PGF1α released)” value (cyclooxygenase; listed as (l)-BK1-5) was “concentration-dependent increase in the amount of 6-keto PGF1α released; also recorded: activate cyclooxygenase”. The “tyrosyl phosphorylation of cytoplasmic and nuclear proteins” value [6] was “pronounced increase in tyrosyl phosphorylation of numerous cytoplasmic and nuclear proteins”, the “displacement of specific binding of bradykinin to kinin B2 receptors” value (kinin B2 receptors) was “without action upon the receptors for the parent peptide; also recorded: not effected” and the “contractile responses to phenylephrine, peptide alone” value (isolated rat aorta; BK1-5 alone, no LPS) was “responded similarly to control segments”. For the same molecule, the “protection of contractile responses” value (isolated rat aorta; listed as (l) pentapeptide) was “sustained vascular integrity in the face of attack by LPS”, the “protection of contractile responses” value (isolated rat aorta; listed as (l)-BK1-5) was “protected contractility” and the “protection against the deleterious effects of LPS” value (isolated rat aorta) was “protection against the deleterious effects of LPS”. For the same molecule, the “tyrosyl phosphorylation (activation) of focal adhesion kinase” value [7] was “produces activation of this specific kinase which is more intense than that of BK or des-Arg-^9 -BK”.
